{"source": "PubChem BioAssay AID1508597 (Cure First, 2020)", "aim": "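Genes whose silencing sensitises or protects ovarian cancer cells against rucaparib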 (primary screen)", "system": "human ovarian carcinoma lines grown from tumours: OCI-P5x (papillary serous) and OCI-C5x (clear cell)", "knock-down reagent": "siRNA pool against human genes, 1.25 pmol siRNA per well", "time to read-out": "72 h or 96 h, depending on the cell culture", "challenge": "rucaparib 20 µM (about IC30) or vehicle, present until read-out", "measurement": "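Luminescent ATP-based viability assay read 72 or 96 h after transfection, depending on culture, given as normalised percent viability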", "scale": "viability, normalised: higher = more viable cells remaining", "active means": "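Active when normalised viability falls below 80 percent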", "meaning of the calls": "active = viability under 80%; inactive = viability 80% or more", "note": "This is an unselected part of about 2,100 reagents tested. 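Calls flag viability under 80% in either arm, not effects specific to rucaparib; the reference for percent is not stated.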 Entries without a mark were called inactive. Some reagents were tested in more than one well and are listed for each. The record does not give: the 100% reference."}
{"gene": "FAM131C (family with sequence similarity 131 member C)", "rucaparib or vehicle": "Rucaparib", "cell line": "OCI-C5x (clear cell)", "technical replicate": "1", "viability, normalised (%)": "52.8 (active)"}
{"gene": "FAM131C (family with sequence similarity 131 member C)", "rucaparib or vehicle": "Rucaparib", "cell line": "OCI-C5x (clear cell)", "technical replicate": "2", "viability, normalised (%)": "67.6 (active)"}
{"gene": "FAM131C (family with sequence similarity 131 member C)", "rucaparib or vehicle": "Rucaparib", "cell line": "OCI-C5x (clear cell)", "technical replicate": "3", "viability, normalised (%)": "66.3 (active)"}
{"gene": "FAM131C (family with sequence similarity 131 member C)", "rucaparib or vehicle": "Rucaparib", "cell line": "OCI-P5x (serous)", "technical replicate": "1", "viability, normalised (%)": "74.7 (active)"}
{"gene": "FAM131C (family with sequence similarity 131 member C)", "rucaparib or vehicle": "Rucaparib", "cell line": "OCI-P5x (serous)", "technical replicate": "2", "viability, normalised (%)": "53.2 (active)"}
{"gene": "FAM131C (family with sequence similarity 131 member C)", "rucaparib or vehicle": "Rucaparib", "cell line": "OCI-P5x (serous)", "technical replicate": "3", "viability, normalised (%)": "79.6 (active)"}
{"gene": "FAM131C (family with sequence similarity 131 member C)", "rucaparib or vehicle": "Vehicle", "cell line": "OCI-C5x (clear cell)", "technical replicate": "1", "viability, normalised (%)": "76.8 (active)"}
{"gene": "FAM131C (family with sequence similarity 131 member C)", "rucaparib or vehicle": "Vehicle", "cell line": "OCI-C5x (clear cell)", "technical replicate": "2", "viability, normalised (%)": "73.8 (active)"}
{"gene": "FAM131C (family with sequence similarity 131 member C)", "rucaparib or vehicle": "Vehicle", "cell line": "OCI-C5x (clear cell)", "technical replicate": "3", "viability, normalised (%)": "63.8 (active)"}
{"gene": "FAM131C (family with sequence similarity 131 member C)", "rucaparib or vehicle": "Vehicle", "cell line": "OCI-P5x (serous)", "technical replicate": "1", "viability, normalised (%)": "79.4 (active)"}
{"gene": "FAM131C (family with sequence similarity 131 member C)", "rucaparib or vehicle": "Vehicle", "cell line": "OCI-P5x (serous)", "technical replicate": "2", "viability, normalised (%)": 91.7}
{"gene": "FAM131C (family with sequence similarity 131 member C)", "rucaparib or vehicle": "Vehicle", "cell line": "OCI-P5x (serous)", "technical replicate": "3", "viability, normalised (%)": "73 (active)"}
{"gene": "RBM14 (RNA binding motif protein 14)", "rucaparib or vehicle": "Rucaparib", "cell line": "OCI-C5x (clear cell)", "technical replicate": "1", "viability, normalised (%)": "45.8 (active)"}
{"gene": "RBM14 (RNA binding motif protein 14)", "rucaparib or vehicle": "Rucaparib", "cell line": "OCI-C5x (clear cell)", "technical replicate": "2", "viability, normalised (%)": "40.4 (active)"}
{"gene": "RBM14 (RNA binding motif protein 14)", "rucaparib or vehicle": "Rucaparib", "cell line": "OCI-C5x (clear cell)", "technical replicate": "3", "viability, normalised (%)": "56 (active)"}
{"gene": "RBM14 (RNA binding motif protein 14)", "rucaparib or vehicle": "Rucaparib", "cell line": "OCI-P5x (serous)", "technical replicate": "1", "viability, normalised (%)": 89.9}
{"gene": "RBM14 (RNA binding motif protein 14)", "rucaparib or vehicle": "Rucaparib", "cell line": "OCI-P5x (serous)", "technical replicate": "2", "viability, normalised (%)": "76.7 (active)"}
{"gene": "RBM14 (RNA binding motif protein 14)", "rucaparib or vehicle": "Rucaparib", "cell line": "OCI-P5x (serous)", "technical replicate": "3", "viability, normalised (%)": "75.4 (active)"}
{"gene": "RBM14 (RNA binding motif protein 14)", "rucaparib or vehicle": "Vehicle", "cell line": "OCI-C5x (clear cell)", "technical replicate": "1", "viability, normalised (%)": "43.2 (active)"}
{"gene": "RBM14 (RNA binding motif protein 14)", "rucaparib or vehicle": "Vehicle", "cell line": "OCI-C5x (clear cell)", "technical replicate": "2", "viability, normalised (%)": "47.9 (active)"}
{"gene": "RBM14 (RNA binding motif protein 14)", "rucaparib or vehicle": "Vehicle", "cell line": "OCI-C5x (clear cell)", "technical replicate": "3", "viability, normalised (%)": "30.8 (active)"}
{"gene": "RBM14 (RNA binding motif protein 14)", "rucaparib or vehicle": "Vehicle", "cell line": "OCI-P5x (serous)", "technical replicate": "1", "viability, normalised (%)": "80 (active)"}
{"gene": "RBM14 (RNA binding motif protein 14)", "rucaparib or vehicle": "Vehicle", "cell line": "OCI-P5x (serous)", "technical replicate": "2", "viability, normalised (%)": "73.9 (active)"}
{"gene": "RBM14 (RNA binding motif protein 14)", "rucaparib or vehicle": "Vehicle", "cell line": "OCI-P5x (serous)", "technical replicate": "3", "viability, normalised (%)": "60.8 (active)"}
{"gene": "GMEB2 (glucocorticoid modulatory element binding protein 2)", "rucaparib or vehicle": "Rucaparib", "cell line": "OCI-C5x (clear cell)", "technical replicate": "1", "viability, normalised (%)": "38.8 (active)"}
{"gene": "GMEB2 (glucocorticoid modulatory element binding protein 2)", "rucaparib or vehicle": "Rucaparib", "cell line": "OCI-C5x (clear cell)", "technical replicate": "2", "viability, normalised (%)": "37.4 (active)"}
{"gene": "GMEB2 (glucocorticoid modulatory element binding protein 2)", "rucaparib or vehicle": "Rucaparib", "cell line": "OCI-C5x (clear cell)", "technical replicate": "3", "viability, normalised (%)": "55 (active)"}
{"gene": "GMEB2 (glucocorticoid modulatory element binding protein 2)", "rucaparib or vehicle": "Rucaparib", "cell line": "OCI-P5x (serous)", "technical replicate": "1", "viability, normalised (%)": "67.5 (active)"}
{"gene": "GMEB2 (glucocorticoid modulatory element binding protein 2)", "rucaparib or vehicle": "Rucaparib", "cell line": "OCI-P5x (serous)", "technical replicate": "2", "viability, normalised (%)": "58.7 (active)"}
{"gene": "GMEB2 (glucocorticoid modulatory element binding protein 2)", "rucaparib or vehicle": "Rucaparib", "cell line": "OCI-P5x (serous)", "technical replicate": "3", "viability, normalised (%)": "69 (active)"}
{"gene": "GMEB2 (glucocorticoid modulatory element binding protein 2)", "rucaparib or vehicle": "Vehicle", "cell line": "OCI-C5x (clear cell)", "technical replicate": "1", "viability, normalised (%)": "58.4 (active)"}
{"gene": "GMEB2 (glucocorticoid modulatory element binding protein 2)", "rucaparib or vehicle": "Vehicle", "cell line": "OCI-C5x (clear cell)", "technical replicate": "2", "viability, normalised (%)": "63.4 (active)"}
{"gene": "GMEB2 (glucocorticoid modulatory element binding protein 2)", "rucaparib or vehicle": "Vehicle", "cell line": "OCI-C5x (clear cell)", "technical replicate": "3", "viability, normalised (%)": "68.9 (active)"}
{"gene": "GMEB2 (glucocorticoid modulatory element binding protein 2)", "rucaparib or vehicle": "Vehicle", "cell line": "OCI-P5x (serous)", "technical replicate": "1", "viability, normalised (%)": "65.2 (active)"}
{"gene": "GMEB2 (glucocorticoid modulatory element binding protein 2)", "rucaparib or vehicle": "Vehicle", "cell line": "OCI-P5x (serous)", "technical replicate": "2", "viability, normalised (%)": "79.1 (active)"}
{"gene": "GMEB2 (glucocorticoid modulatory element binding protein 2)", "rucaparib or vehicle": "Vehicle", "cell line": "OCI-P5x (serous)", "technical replicate": "3", "viability, normalised (%)": "77 (active)"}

8 neighbouring reagents already listed:
{"gene": "RBM14 (RNA binding motif protein 14)", "rucaparib or vehicle": "Rucaparib", "cell line": "OCI-C5x (clear cell)", "technical replicate": "3", "viability, normalised (%)": "56 (active)"}
{"gene": "RBM14 (RNA binding motif protein 14)", "rucaparib or vehicle": "Rucaparib", "cell line": "OCI-P5x (serous)", "technical replicate": "1", "viability, normalised (%)": 89.9}
{"gene": "RBM14 (RNA binding motif protein 14)", "rucaparib or vehicle": "Rucaparib", "cell line": "OCI-P5x (serous)", "technical replicate": "2", "viability, normalised (%)": "76.7 (active)"}
{"gene": "RBM14 (RNA binding motif protein 14)", "rucaparib or vehicle": "Rucaparib", "cell line": "OCI-P5x (serous)", "technical replicate": "3", "viability, normalised (%)": "75.4 (active)"}
{"gene": "RBM14 (RNA binding motif protein 14)", "rucaparib or vehicle": "Vehicle", "cell line": "OCI-C5x (clear cell)", "technical replicate": "1", "viability, normalised (%)": "43.2 (active)"}
{"gene": "RBM14 (RNA binding motif protein 14)", "rucaparib or vehicle": "Vehicle", "cell line": "OCI-C5x (clear cell)", "technical replicate": "2", "viability, normalised (%)": "47.9 (active)"}
{"gene": "RBM14 (RNA binding motif protein 14)", "rucaparib or vehicle": "Vehicle", "cell line": "OCI-C5x (clear cell)", "technical replicate": "3", "viability, normalised (%)": "30.8 (active)"}
{"gene": "RBM14 (RNA binding motif protein 14)", "rucaparib or vehicle": "Vehicle", "cell line": "OCI-P5x (serous)", "technical replicate": "1", "viability, normalised (%)": "80 (active)"}

Further results follow:
{"gene": "NUP98 (nucleoporin 98 and 96 precursor)", "rucaparib or vehicle": "Rucaparib", "cell line": "OCI-C5x (clear cell)", "technical replicate": "1", "viability, normalised (%)": "30.3 (active)"}
{"gene": "NUP98 (nucleoporin 98 and 96 precursor)", "rucaparib or vehicle": "Rucaparib", "cell line": "OCI-C5x (clear cell)", "technical replicate": "1", "viability, normalised (%)": "44.1 (active)"}
{"gene": "NUP98 (nucleoporin 98 and 96 precursor)", "rucaparib or vehicle": "Rucaparib", "cell line": "OCI-C5x (clear cell)", "technical replicate": "2", "viability, normalised (%)": "42.5 (active)"}
{"gene": "NUP98 (nucleoporin 98 and 96 precursor)", "rucaparib or vehicle": "Rucaparib", "cell line": "OCI-C5x (clear cell)", "technical replicate": "2", "viability, normalised (%)": "32.9 (active)"}
{"gene": "NUP98 (nucleoporin 98 and 96 precursor)", "rucaparib or vehicle": "Rucaparib", "cell line": "OCI-C5x (clear cell)", "technical replicate": "3", "viability, normalised (%)": "38.1 (active)"}
{"gene": "NUP98 (nucleoporin 98 and 96 precursor)", "rucaparib or vehicle": "Rucaparib", "cell line": "OCI-C5x (clear cell)", "technical replicate": "3", "viability, normalised (%)": "52.2 (active)"}
{"gene": "NUP98 (nucleoporin 98 and 96 precursor)", "rucaparib or vehicle": "Rucaparib", "cell line": "OCI-P5x (serous)", "technical replicate": "1", "viability, normalised (%)": "37.9 (active)"}
{"gene": "NUP98 (nucleoporin 98 and 96 precursor)", "rucaparib or vehicle": "Rucaparib", "cell line": "OCI-P5x (serous)", "technical replicate": "1", "viability, normalised (%)": "55 (active)"}
{"gene": "NUP98 (nucleoporin 98 and 96 precursor)", "rucaparib or vehicle": "Rucaparib", "cell line": "OCI-P5x (serous)", "technical replicate": "2", "viability, normalised (%)": "51.5 (active)"}
{"gene": "NUP98 (nucleoporin 98 and 96 precursor)", "rucaparib or vehicle": "Rucaparib", "cell line": "OCI-P5x (serous)", "technical replicate": "2", "viability, normalised (%)": "33.7 (active)"}
{"gene": "NUP98 (nucleoporin 98 and 96 precursor)", "rucaparib or vehicle": "Rucaparib", "cell line": "OCI-P5x (serous)", "technical replicate": "3", "viability, normalised (%)": "54.5 (active)"}
{"gene": "NUP98 (nucleoporin 98 and 96 precursor)", "rucaparib or vehicle": "Rucaparib", "cell line": "OCI-P5x (serous)", "technical replicate": "3", "viability, normalised (%)": "35.9 (active)"}
{"gene": "NUP98 (nucleoporin 98 and 96 precursor)", "rucaparib or vehicle": "Vehicle", "cell line": "OCI-C5x (clear cell)", "technical replicate": "1", "viability, normalised (%)": "32.1 (active)"}
{"gene": "NUP98 (nucleoporin 98 and 96 precursor)", "rucaparib or vehicle": "Vehicle", "cell line": "OCI-C5x (clear cell)", "technical replicate": "1", "viability, normalised (%)": "39.8 (active)"}
{"gene": "NUP98 (nucleoporin 98 and 96 precursor)", "rucaparib or vehicle": "Vehicle", "cell line": "OCI-C5x (clear cell)", "technical replicate": "2", "viability, normalised (%)": "28.8 (active)"}
{"gene": "NUP98 (nucleoporin 98 and 96 precursor)", "rucaparib or vehicle": "Vehicle", "cell line": "OCI-C5x (clear cell)", "technical replicate": "2", "viability, normalised (%)": "36.4 (active)"}
{"gene": "NUP98 (nucleoporin 98 and 96 precursor)", "rucaparib or vehicle": "Vehicle", "cell line": "OCI-C5x (clear cell)", "technical replicate": "3", "viability, normalised (%)": "27.6 (active)"}
{"gene": "NUP98 (nucleoporin 98 and 96 precursor)", "rucaparib or vehicle": "Vehicle", "cell line": "OCI-C5x (clear cell)", "technical replicate": "3", "viability, normalised (%)": "37.8 (active)"}
{"gene": "NUP98 (nucleoporin 98 and 96 precursor)", "rucaparib or vehicle": "Vehicle", "cell line": "OCI-P5x (serous)", "technical replicate": "1", "viability, normalised (%)": "29.4 (active)"}
{"gene": "NUP98 (nucleoporin 98 and 96 precursor)", "rucaparib or vehicle": "Vehicle", "cell line": "OCI-P5x (serous)", "technical replicate": "1", "viability, normalised (%)": "61.4 (active)"}
{"gene": "NUP98 (nucleoporin 98 and 96 precursor)", "rucaparib or vehicle": "Vehicle", "cell line": "OCI-P5x (serous)", "technical replicate": "2", "viability, normalised (%)": "57.8 (active)"}
{"gene": "NUP98 (nucleoporin 98 and 96 precursor)", "rucaparib or vehicle": "Vehicle", "cell line": "OCI-P5x (serous)", "technical replicate": "2", "viability, normalised (%)": "40.7 (active)"}
{"gene": "NUP98 (nucleoporin 98 and 96 precursor)", "rucaparib or vehicle": "Vehicle", "cell line": "OCI-P5x (serous)", "technical replicate": "3", "viability, normalised (%)": "51.6 (active)"}
{"gene": "NUP98 (nucleoporin 98 and 96 precursor)", "rucaparib or vehicle": "Vehicle", "cell line": "OCI-P5x (serous)", "technical replicate": "3", "viability, normalised (%)": "60.8 (active)"}
